# Data taken from patent US8980830B2 (priority 2007, dated 2015).
# By UniProt entry, the sequences of proteins in these tests, tags left out. Residues count along the entry.
# UniProt P47871, 26-477: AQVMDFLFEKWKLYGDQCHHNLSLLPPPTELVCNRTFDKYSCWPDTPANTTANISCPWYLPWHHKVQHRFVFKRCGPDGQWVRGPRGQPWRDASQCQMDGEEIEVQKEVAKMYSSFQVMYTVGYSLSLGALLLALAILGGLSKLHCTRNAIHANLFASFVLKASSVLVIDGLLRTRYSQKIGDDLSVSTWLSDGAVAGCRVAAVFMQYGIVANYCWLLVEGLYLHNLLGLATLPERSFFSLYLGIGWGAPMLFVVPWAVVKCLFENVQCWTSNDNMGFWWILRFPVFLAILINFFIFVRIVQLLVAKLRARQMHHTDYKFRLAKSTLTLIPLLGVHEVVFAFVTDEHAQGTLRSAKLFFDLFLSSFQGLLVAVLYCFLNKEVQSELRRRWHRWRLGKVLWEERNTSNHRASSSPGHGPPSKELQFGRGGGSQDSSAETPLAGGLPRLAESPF
# UniProt P43220, 24-463: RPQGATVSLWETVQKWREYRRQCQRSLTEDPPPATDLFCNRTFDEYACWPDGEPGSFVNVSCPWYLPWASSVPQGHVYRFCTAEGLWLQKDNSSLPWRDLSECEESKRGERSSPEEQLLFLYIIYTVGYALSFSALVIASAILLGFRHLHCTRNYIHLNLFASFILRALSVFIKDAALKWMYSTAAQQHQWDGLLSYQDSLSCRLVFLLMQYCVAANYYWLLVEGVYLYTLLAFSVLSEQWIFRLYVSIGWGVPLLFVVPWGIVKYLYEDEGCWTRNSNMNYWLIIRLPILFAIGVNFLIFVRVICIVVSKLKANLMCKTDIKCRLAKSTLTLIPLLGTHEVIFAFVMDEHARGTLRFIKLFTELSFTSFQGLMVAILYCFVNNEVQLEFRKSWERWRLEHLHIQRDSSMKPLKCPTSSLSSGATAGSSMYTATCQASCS
# Read-outs that look alike come from different tables or passages of the source. For part of these data: Part of at least one peptide drawing is inferred or uncertain, most often the ends. For part of these data: At least one structure is not confirmed: it was looked up by name or label, or the drawing left a doubt. Bridge positions count the residues as written; N and C are the ends. Ends that are not written are not given here. Peptide text beside a SMILES is read from it.
# Key:
# Glucagon Receptor = Glucagon Receptor (Homo sapiens, UniProt P47871); experiment: cAMP inhibition: antagonism of glucagon-induced cAMP at glucagon receptor; assay type: cell-based; parameters: expressed in transfected cells; host or cells: HEK293; settings: Table 18
# GLP-1 Receptor = GLP-1 Receptor (Homo sapiens, UniProt P43220); experiment: Functional assay, cAMP induction (luciferase reporter, HEK293) at GLP-1 receptor; assay type: cell-based
"character of antagonism (partial antagonist, wrapped cell) (Glucagon Receptor)","EC50 (GLP-1 Receptor; read-out: GLP-1 EC50, Table 14) [nM]","EC50 (GLP-1 Receptor; read-out: GLP-1 agonism EC50, Table 19) [nM]",Molecule
partial,–,–,"CC[C@H](C)[C@H](NC(=O)[C@H](Cc1ccccc1)NC(=O)[C@H](CCC(=O)O)NC(=O)[C@@H]1CCCCNC(=O)CC[C@H](NC(=O)[C@H](CC(=O)O)NC(=O)[C@H](CC(C)C)NC(=O)[C@H](Cc2ccc(O)cc2)NC(=O)[C@H](CCCCN)NC(=O)[C@H](CO)NC(=O)[C@H](Cc2ccc(O)cc2)NC(=O)[C@H](CCC(=O)O)NC(=O)[C@H](CO)NC(=O)[C@@H](NC(=O)[C@H](Cc2ccccc2)NC(=O)[C@@H](NC(=O)CNC(=O)[C@H](CCC(=O)O)NC(=O)[C@H](C)NC(=O)[C@@H](N)Cc2c[nH]cn2)[C@@H](C)O)[C@@H](C)O)C(=O)N[C@@H](CCC(N)=O)C(=O)N[C@@H](C)C(=O)N[C@@H](C)C(=O)N1)C(=O)N[C@@H](C)C(=O)N[C@@H](Cc1c[nH]c2ccccc12)C(=O)N[C@@H](CC(C)C)C(=O)N[C@@H](CCSC)C(=O)N[C@@H](CC(=O)O)C(=O)N[C@H](C(N)=O)[C@@H](C)O [[H1A2E3, E9, E16K20(Lactam), GLP(23-32)]G(1-29)] (H-HAEGTFTSEYSKYLDEQAAKEFIAWLMDT-NH2; lactam 16-20; N-terminus assumed)"
–,0.28,0.28,"HSQGTFTSDYARYLDARRAREFIKWLVRGRG-NH2 [ANK2 (Bayer peptide), reference compound]"
